Measurements from “University of Dundee, Small-Polar-MMV Screening Library” (2021), ChEMBL document CHEMBL3988442.

Chains of the proteins cited; added tags and fusions are not shown.
UniProt E9BF75, entry or part of it: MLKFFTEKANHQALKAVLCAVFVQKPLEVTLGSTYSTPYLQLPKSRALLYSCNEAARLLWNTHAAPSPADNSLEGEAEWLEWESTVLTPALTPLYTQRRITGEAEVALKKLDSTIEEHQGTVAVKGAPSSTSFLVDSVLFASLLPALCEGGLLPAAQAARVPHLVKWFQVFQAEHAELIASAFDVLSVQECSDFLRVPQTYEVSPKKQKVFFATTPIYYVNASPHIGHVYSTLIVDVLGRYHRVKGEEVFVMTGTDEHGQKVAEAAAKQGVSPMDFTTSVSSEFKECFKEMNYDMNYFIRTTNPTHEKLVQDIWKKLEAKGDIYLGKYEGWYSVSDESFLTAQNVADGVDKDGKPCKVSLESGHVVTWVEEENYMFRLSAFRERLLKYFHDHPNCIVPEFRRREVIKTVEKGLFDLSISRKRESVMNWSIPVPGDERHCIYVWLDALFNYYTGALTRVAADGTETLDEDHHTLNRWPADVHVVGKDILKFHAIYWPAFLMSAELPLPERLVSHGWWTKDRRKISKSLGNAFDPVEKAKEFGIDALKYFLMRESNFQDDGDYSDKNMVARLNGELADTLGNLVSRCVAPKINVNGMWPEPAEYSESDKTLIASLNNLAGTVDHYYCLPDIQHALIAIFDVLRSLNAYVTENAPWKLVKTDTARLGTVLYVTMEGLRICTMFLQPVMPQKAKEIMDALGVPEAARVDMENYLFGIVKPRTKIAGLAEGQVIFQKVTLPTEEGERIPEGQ

All values are in %.
How 0% and 100% were set is not recorded. Most values in the screen are low, and negative values occur.
Compounds were drawn at random from those tested, without regard to their results.

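Methionyl-tRNA synthetase (putative), Leishmania donovani (UniProt E9BF75). Primary screen of methionyl-tRNA synthetase; the read-out is not stated. The test concentration is not given. The values are filed as inhibition. Size under these conditions: about 68,000 compounds, about 24 of them at 50% or above in at least one test.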

{"structure": "Cn1c(-c2ccc(F)cc2)cn2cc(C(=O)N3CCC(N)C3)nc2c1=O", "stereo": "stereo not drawn", "Inhibition": 19.59}
{"structure": "O=C1COC2(CCN(c3ccccn3)CC2)CN1Cc1ccccn1", "Inhibition": 8.125}
{"structure": "CCN(CC)CCSc1nnc(N2CCN(c3ccc(F)cc3)CC2)s1", "Inhibition": 8.075}
{"structure": "CN(C)CC(=O)N1CCc2sc(C(=O)NCC3CC3)cc21", "Inhibition": 21.04}
{"structure": "COc1ccc(CNC(=O)N(Cc2ccc(F)cc2F)C2CC2)cn1", "Inhibition": 5.164}
{"structure": "CC(C(=O)N1CCc2sccc2C1)N1CCCN(C2CC2)CC1", "stereo": "stereo not drawn", "Inhibition": -2.32}
{"structure": "CNC(=O)C1(c2cnccn2)CCCN1C(=O)c1ccn(C)n1", "stereo": "stereo not drawn", "Inhibition": 18.15}
{"structure": "Cc1cnn(C2CCCN(C(=O)c3ccc(-n4cccn4)nc3)C2)c1", "stereo": "stereo not drawn", "Inhibition": 10.54}
{"structure": "CCc1nnc2n1CCN(CC(=O)Nc1cc(C)on1)C2", "Inhibition": -1.031}
{"structure": "COc1c(C2CCCN2Cc2noc(C)n2)c(C)nn1C", "stereo": "stereo not drawn", "Inhibition": -5.444}
{"structure": "O=C([C@H]1CN(Cc2ccccc2F)C[C@H]2OCC[C@@H]12)N1CCCO1", "Inhibition": 4.886}
{"structure": "CO[C@H]1CN(Cc2cccc(C#N)c2)[C@@H]2COC[C@H]12", "Inhibition": 13.81}
{"structure": "Clc1ccc(C2(NCc3noc(C4CC4)n3)CCOCC2)cc1", "Inhibition": 17.55}
{"structure": "O=C(O)CCNC(=O)Cc1csc(-c2cccc(Cl)c2)n1", "Inhibition": 12}
{"structure": "CCCc1cnc(C)nc1N1CCC2(CC1)CNC(=O)O2", "Inhibition": -0.9639}
{"structure": "NC(=O)CSc1nnc2n1N=CN(c1ccccc1F)C2", "Inhibition": 21.58}
{"structure": "CC(C)CN1CC2(CCN(C(=O)C3CNC(=O)N3)CC2)CC1=O", "stereo": "stereo not drawn", "Inhibition": 6.015}
{"structure": "O=S(=O)(NCC1CCN(c2cnccn2)CC1)c1cccs1", "Inhibition": 9.934}
{"structure": "CN(CC(=O)N1CCCC1c1noc(C2CC2)n1)C1CC1", "stereo": "stereo not drawn", "Inhibition": 15.25}
{"structure": "NC(=O)CC1CCN(CC(O)c2ccc(Br)cc2)CC1", "stereo": "stereo not drawn", "Inhibition": 11.57}
{"structure": "Cc1cc(C)c(C(=O)N(C)CCN(C)C(=O)c2[nH]c(C)cc2C)[nH]1", "Inhibition": 12.57}
{"structure": "Cc1noc([C@H]2C[C@H]3OCC[C@H]3N(Cc3scnc3C)C2)n1", "Inhibition": 13.02}
{"structure": "CO[C@@H]1CCN(S(=O)(=O)c2cn(C)cn2)[C@H]1Cc1ccncc1", "Inhibition": 10.1}
{"structure": "CC(C)NC1CCN(CCc2ccc3c(c2)CCO3)CC1", "Inhibition": 14.87}
{"structure": "Cc1ccoc1C(=O)N1CCCC2(CCCN2S(C)(=O)=O)C1", "stereo": "stereo not drawn", "Inhibition": -21.65}
{"structure": "Cn1cc(CN2CCn3cc(Cn4cccn4)nc3C2)cn1", "Inhibition": -0.2882}
{"structure": "COc1ccc(NC(=O)NCc2ccnc(N(C)C)c2)cn1", "Inhibition": -11.22}
{"structure": "Cc1ccc(N2CCCC(N3CCN(CC(F)F)CC3)C2=O)cc1", "stereo": "stereo not drawn", "Inhibition": 13.13}
{"structure": "Cc1cc(N(C)C)cc(C2CCN(S(=O)(=O)c3cccs3)C2)n1", "stereo": "stereo not drawn", "Inhibition": 11.84}
{"structure": "c1cncc(-c2noc(CN3CCCC(Cn4cncn4)C3)n2)c1", "stereo": "stereo not drawn", "Inhibition": 10.99}
{"structure": "CN1CC(Oc2ccccc2)=NC(SCC(=O)Nc2ccccc2Cl)=N1", "Inhibition": 8.271}
{"structure": "CCc1nc(C2CCCN(C(=O)c3ccc4c(c3)nnn4C)C2)no1", "stereo": "stereo not drawn", "Inhibition": 13.19}
{"structure": "Cc1c[nH]c(C2COCCN2C(=O)CCc2c(C)n[nH]c2C)n1", "stereo": "stereo not drawn", "Inhibition": 9.346}
{"structure": "Cc1cccc2c1ccn2CCC(=O)O", "Inhibition": 4.7}
{"structure": "COc1ccccc1OCCCc1cccc(C#N)n1", "Inhibition": 9.946}
{"structure": "CCc1cc(CNC(=O)N(C2CC2)C(C)c2ccco2)on1", "stereo": "stereo not drawn", "Inhibition": 4.514}
{"structure": "O=C(CCc1ccccc1F)NC1CCCN(c2ccccn2)C1", "stereo": "stereo not drawn", "Inhibition": 15.84}
{"structure": "CCN1C(=O)CCCC12CCCN(C(=O)c1ccoc1)C2", "stereo": "stereo not drawn", "Inhibition": 12.8}

For reference, 5 entries once more:

* Cc1cc(N(C)C)cc(C2CCN(S(=O)(=O)c3cccs3)C2)n1 (stereo not drawn) : 11.84%
* CC(C)NC1CCN(CCc2ccc3c(c2)CCO3)CC1 : 14.87%
* O=C(O)CCNC(=O)Cc1csc(-c2cccc(Cl)c2)n1 : 12%
* Cc1cnn(C2CCCN(C(=O)c3ccc(-n4cccn4)nc3)C2)c1 (stereo not drawn) : 10.54%
* CC(C(=O)N1CCc2sccc2C1)N1CCCN(C2CC2)CC1 (stereo not drawn) : -2.32%